From the supplement of paper PMC12819154, “High-throughput peptide-centric local stability assay extends protein–ligand identification to membrane proteins, tissues and bacteria” (Nature Structural & Molecular Biology, 2025)
This is one part of the list. Most entries show no effect beyond the scatter of the controls.

Protein sequences, listed by entry. Tags and fused reporters are not part of them. Lines headed by an entry give the natural chain unless they say otherwise; changes in a name come on top.
UniProt Q6ZQ58, whole entry: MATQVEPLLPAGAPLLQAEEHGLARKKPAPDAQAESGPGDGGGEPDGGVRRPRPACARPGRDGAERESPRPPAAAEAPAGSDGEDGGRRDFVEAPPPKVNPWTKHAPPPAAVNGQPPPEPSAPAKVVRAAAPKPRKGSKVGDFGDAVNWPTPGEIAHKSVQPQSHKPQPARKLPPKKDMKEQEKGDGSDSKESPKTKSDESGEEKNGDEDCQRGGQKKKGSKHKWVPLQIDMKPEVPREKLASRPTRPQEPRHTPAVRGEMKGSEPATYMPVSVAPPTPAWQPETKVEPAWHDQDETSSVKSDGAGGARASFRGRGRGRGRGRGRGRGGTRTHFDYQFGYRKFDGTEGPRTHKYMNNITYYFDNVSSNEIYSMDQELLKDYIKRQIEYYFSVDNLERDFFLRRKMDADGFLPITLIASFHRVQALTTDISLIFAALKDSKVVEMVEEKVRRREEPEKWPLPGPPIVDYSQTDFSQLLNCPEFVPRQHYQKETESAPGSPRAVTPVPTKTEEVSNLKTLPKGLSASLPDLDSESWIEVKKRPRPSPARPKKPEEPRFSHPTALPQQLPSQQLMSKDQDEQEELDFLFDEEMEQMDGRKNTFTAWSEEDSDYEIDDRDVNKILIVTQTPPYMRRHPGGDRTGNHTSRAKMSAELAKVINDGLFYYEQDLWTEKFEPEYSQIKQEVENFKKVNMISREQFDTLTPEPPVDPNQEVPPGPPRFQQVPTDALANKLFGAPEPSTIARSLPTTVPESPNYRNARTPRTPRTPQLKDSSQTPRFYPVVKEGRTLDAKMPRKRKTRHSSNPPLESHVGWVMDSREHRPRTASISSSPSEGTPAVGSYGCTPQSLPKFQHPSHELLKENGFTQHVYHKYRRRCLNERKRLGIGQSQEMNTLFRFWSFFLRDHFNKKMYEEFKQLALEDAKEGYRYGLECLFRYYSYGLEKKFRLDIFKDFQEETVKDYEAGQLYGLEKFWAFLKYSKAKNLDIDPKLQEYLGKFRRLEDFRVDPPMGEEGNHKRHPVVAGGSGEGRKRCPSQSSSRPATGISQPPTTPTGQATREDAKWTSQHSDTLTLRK
UniProt Q80V26: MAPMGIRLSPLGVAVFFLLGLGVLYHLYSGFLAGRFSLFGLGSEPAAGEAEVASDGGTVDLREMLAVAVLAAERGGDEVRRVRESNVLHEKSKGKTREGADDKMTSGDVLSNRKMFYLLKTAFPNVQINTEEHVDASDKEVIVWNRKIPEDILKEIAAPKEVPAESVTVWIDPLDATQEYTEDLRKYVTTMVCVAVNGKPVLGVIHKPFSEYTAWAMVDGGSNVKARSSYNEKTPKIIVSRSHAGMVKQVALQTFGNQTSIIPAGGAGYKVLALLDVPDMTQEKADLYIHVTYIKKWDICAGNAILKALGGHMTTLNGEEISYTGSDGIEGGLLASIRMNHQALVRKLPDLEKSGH
UniProt Q7TMK9: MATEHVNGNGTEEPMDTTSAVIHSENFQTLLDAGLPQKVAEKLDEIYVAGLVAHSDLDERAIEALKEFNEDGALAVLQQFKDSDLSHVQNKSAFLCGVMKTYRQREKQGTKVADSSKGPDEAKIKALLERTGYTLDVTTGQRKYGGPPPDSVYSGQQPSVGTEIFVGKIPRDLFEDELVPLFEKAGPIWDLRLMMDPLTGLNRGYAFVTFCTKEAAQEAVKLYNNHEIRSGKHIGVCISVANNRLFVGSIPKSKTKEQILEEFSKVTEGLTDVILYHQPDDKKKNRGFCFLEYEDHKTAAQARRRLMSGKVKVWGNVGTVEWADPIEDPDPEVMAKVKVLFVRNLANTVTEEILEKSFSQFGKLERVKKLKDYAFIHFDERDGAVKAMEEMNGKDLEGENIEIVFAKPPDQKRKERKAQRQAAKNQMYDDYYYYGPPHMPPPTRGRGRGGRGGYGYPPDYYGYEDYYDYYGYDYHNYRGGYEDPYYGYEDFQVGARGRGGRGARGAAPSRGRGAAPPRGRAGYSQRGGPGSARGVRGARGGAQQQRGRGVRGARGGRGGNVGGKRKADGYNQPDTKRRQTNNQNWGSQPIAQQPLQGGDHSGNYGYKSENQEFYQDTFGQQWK
UniProt Q7TQH7: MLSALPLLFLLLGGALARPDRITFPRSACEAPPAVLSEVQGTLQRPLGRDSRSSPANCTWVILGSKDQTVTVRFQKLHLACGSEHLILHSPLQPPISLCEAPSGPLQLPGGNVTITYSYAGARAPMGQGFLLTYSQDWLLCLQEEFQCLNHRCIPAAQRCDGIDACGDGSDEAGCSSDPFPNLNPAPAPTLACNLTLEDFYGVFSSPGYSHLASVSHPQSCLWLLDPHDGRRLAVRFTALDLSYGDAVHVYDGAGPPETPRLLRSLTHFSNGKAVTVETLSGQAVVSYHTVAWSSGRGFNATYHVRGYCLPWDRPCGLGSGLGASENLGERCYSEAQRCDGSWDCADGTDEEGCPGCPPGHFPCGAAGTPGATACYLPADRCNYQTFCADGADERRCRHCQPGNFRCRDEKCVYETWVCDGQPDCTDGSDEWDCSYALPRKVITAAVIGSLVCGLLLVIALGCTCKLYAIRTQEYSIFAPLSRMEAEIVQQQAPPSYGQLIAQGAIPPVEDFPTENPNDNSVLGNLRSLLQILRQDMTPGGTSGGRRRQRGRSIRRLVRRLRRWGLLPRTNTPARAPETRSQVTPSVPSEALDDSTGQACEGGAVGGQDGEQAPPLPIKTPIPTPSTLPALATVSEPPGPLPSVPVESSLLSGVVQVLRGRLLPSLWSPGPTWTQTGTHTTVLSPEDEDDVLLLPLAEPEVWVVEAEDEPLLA
UniProt Q70KY4: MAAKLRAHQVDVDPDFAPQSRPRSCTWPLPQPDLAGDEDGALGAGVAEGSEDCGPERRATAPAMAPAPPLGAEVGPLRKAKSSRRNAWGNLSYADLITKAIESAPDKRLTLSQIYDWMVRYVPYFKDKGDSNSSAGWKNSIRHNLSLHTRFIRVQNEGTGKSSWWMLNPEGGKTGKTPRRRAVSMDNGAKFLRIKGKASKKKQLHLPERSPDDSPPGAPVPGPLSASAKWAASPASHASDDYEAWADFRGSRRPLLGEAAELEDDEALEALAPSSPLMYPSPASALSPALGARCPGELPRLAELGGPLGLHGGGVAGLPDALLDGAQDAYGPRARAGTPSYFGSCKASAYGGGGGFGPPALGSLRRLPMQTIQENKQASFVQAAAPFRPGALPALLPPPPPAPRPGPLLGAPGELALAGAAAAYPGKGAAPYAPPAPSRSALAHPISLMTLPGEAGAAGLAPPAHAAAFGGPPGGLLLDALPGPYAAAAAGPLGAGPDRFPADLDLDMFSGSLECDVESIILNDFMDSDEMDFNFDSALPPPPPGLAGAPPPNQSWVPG
UniProt Q7TPD0, whole entry: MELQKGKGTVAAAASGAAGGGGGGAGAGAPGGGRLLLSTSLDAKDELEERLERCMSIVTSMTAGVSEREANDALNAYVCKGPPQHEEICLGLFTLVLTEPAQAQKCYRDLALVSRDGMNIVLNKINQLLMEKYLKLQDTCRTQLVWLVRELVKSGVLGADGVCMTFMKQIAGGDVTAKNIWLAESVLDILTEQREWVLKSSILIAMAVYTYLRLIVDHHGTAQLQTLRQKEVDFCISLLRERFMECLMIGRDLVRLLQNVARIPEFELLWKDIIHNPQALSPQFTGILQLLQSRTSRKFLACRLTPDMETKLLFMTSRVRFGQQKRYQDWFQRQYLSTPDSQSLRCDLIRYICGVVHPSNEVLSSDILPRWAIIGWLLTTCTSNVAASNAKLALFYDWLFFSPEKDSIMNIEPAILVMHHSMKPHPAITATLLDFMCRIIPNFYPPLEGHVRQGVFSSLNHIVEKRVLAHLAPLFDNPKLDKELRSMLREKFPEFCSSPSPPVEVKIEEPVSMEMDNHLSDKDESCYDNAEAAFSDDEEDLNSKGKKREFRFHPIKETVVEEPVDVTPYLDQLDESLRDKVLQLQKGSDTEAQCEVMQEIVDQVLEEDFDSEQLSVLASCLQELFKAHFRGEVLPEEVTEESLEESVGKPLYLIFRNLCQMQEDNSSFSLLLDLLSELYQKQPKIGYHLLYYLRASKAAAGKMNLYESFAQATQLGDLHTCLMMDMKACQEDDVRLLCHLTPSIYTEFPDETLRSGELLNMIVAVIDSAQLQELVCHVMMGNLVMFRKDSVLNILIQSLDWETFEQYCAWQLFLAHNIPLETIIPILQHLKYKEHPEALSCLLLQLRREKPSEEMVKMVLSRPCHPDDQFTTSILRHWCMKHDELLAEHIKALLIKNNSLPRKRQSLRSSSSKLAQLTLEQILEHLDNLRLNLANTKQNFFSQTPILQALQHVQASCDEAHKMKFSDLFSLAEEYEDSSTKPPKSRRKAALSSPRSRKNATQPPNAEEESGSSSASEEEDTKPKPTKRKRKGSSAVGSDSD
UniProt Q80UN9: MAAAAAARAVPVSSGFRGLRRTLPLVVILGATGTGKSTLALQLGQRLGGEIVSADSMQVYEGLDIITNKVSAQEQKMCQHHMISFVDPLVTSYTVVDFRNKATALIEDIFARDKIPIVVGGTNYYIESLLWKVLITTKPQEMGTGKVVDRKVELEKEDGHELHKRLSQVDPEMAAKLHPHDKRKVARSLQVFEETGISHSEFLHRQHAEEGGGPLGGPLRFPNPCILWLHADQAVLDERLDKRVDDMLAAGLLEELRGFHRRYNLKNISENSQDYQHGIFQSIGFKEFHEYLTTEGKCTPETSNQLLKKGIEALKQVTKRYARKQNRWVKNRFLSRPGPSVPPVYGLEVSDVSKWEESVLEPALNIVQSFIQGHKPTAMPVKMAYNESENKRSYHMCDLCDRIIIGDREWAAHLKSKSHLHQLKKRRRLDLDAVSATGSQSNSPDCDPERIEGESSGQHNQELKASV
UniProt Q76I79: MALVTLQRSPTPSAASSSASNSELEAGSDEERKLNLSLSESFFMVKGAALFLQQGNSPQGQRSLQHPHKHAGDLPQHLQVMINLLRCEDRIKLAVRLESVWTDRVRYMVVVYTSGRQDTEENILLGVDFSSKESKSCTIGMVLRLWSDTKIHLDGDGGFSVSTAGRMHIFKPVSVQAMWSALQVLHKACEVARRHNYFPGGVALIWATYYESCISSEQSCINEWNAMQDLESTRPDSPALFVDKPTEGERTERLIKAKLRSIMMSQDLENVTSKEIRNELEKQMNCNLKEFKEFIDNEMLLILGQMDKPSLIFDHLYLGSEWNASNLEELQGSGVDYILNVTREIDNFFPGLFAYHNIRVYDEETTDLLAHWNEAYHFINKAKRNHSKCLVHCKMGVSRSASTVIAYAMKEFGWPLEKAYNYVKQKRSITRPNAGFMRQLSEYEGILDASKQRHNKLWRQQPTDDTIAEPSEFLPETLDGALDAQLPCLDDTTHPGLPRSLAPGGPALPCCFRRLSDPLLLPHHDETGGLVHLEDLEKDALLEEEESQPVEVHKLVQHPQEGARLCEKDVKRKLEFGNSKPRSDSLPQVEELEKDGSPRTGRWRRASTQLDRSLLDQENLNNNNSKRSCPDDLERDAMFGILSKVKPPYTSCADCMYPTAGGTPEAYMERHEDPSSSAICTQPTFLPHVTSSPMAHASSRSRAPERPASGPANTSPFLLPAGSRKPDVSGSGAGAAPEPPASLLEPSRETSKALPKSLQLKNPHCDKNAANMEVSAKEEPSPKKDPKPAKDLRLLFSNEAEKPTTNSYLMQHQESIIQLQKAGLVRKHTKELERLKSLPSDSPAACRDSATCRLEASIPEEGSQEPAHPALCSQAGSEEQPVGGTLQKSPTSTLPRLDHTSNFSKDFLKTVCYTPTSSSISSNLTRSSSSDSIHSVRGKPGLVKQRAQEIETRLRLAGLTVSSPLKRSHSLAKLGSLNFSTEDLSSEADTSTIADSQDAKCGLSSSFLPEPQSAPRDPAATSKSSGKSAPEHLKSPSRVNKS
UniProt Q80UW0: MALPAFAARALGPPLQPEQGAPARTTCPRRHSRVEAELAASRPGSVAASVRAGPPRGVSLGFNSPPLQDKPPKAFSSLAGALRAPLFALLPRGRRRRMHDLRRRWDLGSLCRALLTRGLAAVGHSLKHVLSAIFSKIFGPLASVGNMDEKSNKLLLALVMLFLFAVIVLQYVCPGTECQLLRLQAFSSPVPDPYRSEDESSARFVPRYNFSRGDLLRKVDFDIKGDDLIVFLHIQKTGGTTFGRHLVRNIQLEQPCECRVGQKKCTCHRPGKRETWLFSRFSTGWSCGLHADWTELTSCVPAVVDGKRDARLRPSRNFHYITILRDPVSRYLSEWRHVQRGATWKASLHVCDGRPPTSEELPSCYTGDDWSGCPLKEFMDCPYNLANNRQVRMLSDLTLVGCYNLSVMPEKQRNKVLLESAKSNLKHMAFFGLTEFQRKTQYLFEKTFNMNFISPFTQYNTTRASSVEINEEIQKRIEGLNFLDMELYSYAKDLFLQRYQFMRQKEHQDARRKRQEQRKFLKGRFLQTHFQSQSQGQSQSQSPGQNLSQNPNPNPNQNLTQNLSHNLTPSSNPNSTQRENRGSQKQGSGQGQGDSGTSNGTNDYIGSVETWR

compound: CN[C@@H]1C[C@H]2O[C@@](C)([C@@H]1OC)n1c3ccccc3c3c4c(c5c6ccccc6n2c5c31)C(=O)NC4 [staurosporine]; assay: log2 fold change of tryptic peptide abundance, ligand vs vehicle (limited proteolysis) (log2 ratio); higher = more trypsin-susceptible (destabilized); details: ligand concentration: 20 uM; sample: mouse liver crude lysate; replicate design: treated separately

| Target | log2 fold change |
| --- | --- |
| UniProt Q6ZQ58 (peptide sequence: FQHPSHELLK, peptide start residue: 849) | 0.238 |
| UniProt Q80UK8 (peptide sequence: EKPSGWSQICKDPSYK, peptide start residue: 1149) | -0.136 |
| UniProt Q80V26 (peptide sequence: EVIVWNR, peptide start residue: 140) | -0.223 |
| UniProt Q6ZWR6 (peptide sequence: AIHEYLQK, peptide start residue: 6948) | -0.474 |
| UniProt Q7TMK9 (peptide sequence: VTEGLTDVILYHQPDDK, peptide start residue: 266) | 0.108 |
| UniProt Q7TQH7 (peptide sequence: QDMTPGGTSGGR, peptide start residue: 535) | 0.131 |
| UniProt Q70KY4 (peptide sequence: DKGDSNSSAGWK, peptide start residue: 196) | -0.109 |
| UniProt Q7TPD0 (peptide sequence: YKEHPEALSCLLLQLRR, peptide start residue: 832) | 0.458 |
| UniProt Q80UN9 (peptide sequence: SYHMCDLCDR, peptide start residue: 393) | 0.509 |
| UniProt Q76I79 (peptide sequence: LDHTSNFSK, peptide start residue: 897) | 0.413 |
| UniProt Q80UW0 (peptide sequence: ETWLFSR, peptide start residue: 134) | 0.223 |

2 consecutive records already listed, quoted:

| Target | log2 fold change |
| --- | --- |
| UniProt Q76I79 (peptide sequence: LDHTSNFSK, peptide start residue: 897) | 0.413 |
| UniProt Q80UW0 (peptide sequence: ETWLFSR, peptide start residue: 134) | 0.223 |
